Patent publication US20040029208A1, “Assay method and kit for testing biological material for exposure to stress using biomarkers” (priority 2000, published 2004)

Key:
Test in all cases: TLC plant biomarker pattern after herbicide spraying (greenhouse)
Assay type in all cases: in vivo
Centauréa cýanus = system: Centauréa cýanus
Anagallis arvensis = system: Anagallis arvensis
Procedure: The experiments were performed in the green-house at the National Environmental Research Institute, Silkeborg, Denmark. All the seeds needed light to germinate, and were sown at the soil surface in individual 11 cm pots. The soil used during the experiments contained: (SM Growing Mould (Growing medium by special soil (sphagnum) added clay granulate), 0-30 mm; grade of turnover 55-75; added per m^3: 3 kg lime (white chalk), 1.5 kg dolit chalk, 40 kg clay granulate; Fertilizer added granulate: NO3-N: 55.0 g; NH4-N: 65.0 g; P: 106.6 g; K: 224.0 g; Mg: 22 g; Micro nutrients added in chelate form, Mo in uorganic form: B-Boron: 1 g; Cu-copper: 6 g; Mn-Manganese: 3 g; Zinc-Zn: 3 g: Fe-iron: 6 g; Mo- molybdenum: 1.4 g). […]
The two extracts (freshtfresh ethanol) were applicated immediately on a TLC plate (10 μl on both TLC-Plate types (see below) using cool air-drying. The 75% ethanolic extract was applicated 10 μl on Silica-gel TLC-plates and 5 μl on Cellulose TLC-plates (see below). The fresh/fresh ethanolic extractsare recommended to perform if fresh plant material are to be analysed (field-test). The freeze-dried or frozen plant material extraction Is recommended if the analysis are performed in the laboratory. […]

Lólium perénne = system: Lólium perénne

O=C(O)CNCP(=O)(O)O [Glyphosate]
Rf-value of plant biomarker (Centauréa cýanus; TLC 6 (lipids and terpens)): 0.10 | Rf-value of plant biomarker (Centauréa cýanus; TLC 7 (non-specific compounds)): 0.08

COC(=O)c1ccccc1S(=O)(=O)NC(=O)Nc1nc(C)nc(OC)n1 [Metsulfuron methyl]
Rf-value of plant biomarker (Centauréa cýanus; TLC 2 (phenolic compounds)): 0.52 and 0.86 | Rf-value of plant biomarker (Centauréa cýanus; TLC 7 (non-specific compounds)): 0.42

CCC(CC)Nc1c([N+](=O)[O-])cc(C)c(C)c1[N+](=O)[O-] [Pendimethalin]
Rf-value of plant biomarker (Anagallis arvensis; TLC 1 (non-specific compounds)): 0.20 and 0.31 | Rf-value of plant biomarker (Anagallis arvensis; TLC 7 (non-specific compounds)): 0.32 | Rf-value of plant biomarker (Centauréa cýanus; TLC 2 (phenolic compounds)): 0.44 | Rf-value of plant biomarker (Lólium perénne; TLC 7 (non-specific compounds)): 0.02 | Rf-value of plant biomarker (Lólium perénne; TLC 4d (amino acids)): 0.14

Bromoxynil
Rf-value of plant biomarker (Lólium perénne; TLC 1 (non-specific compounds)): 0.03 | Rf-value of plant biomarker (Lólium perénne; TLC 6 (lipids and terpens)): 0.56

Values joined by “and” are separate entries in the source; they are usually repeats but may differ in a detail not shown here. Identical values can stand only once.
